Measurements from PubChem BioAssay AID298 (DTP/NCI, 2004).
The list shows only some results of the screen, not a fair sample: it gathers some chemical classes. Not every dose and run of a compound is shown. T/C: endpoint of the treated group in % of that of the vehicle group. Schedule codes are those of the source, taken here to give the interval after Q, in days (D) or hours (H), and the number of doses after X. Some T/C values are negative: the treated tumours shrank. Some T/C values are followed by the survivors on the day toxicity was checked; without a count or a note in brackets, all were alive then. Some doses have a count of surviving animals in place of a T/C: the source files T/C as zero there, which appears to mark a toxic dose or a test without result, not a measured value. Survivors were counted at the toxicity check; its day is shown where the source gives one, and later deaths do not show.

Test system: MX-1 breast xenograft, intrarenal, nude mice, tumor weight
Experiment: NCI In Vivo Anticancer Drug Screen. Data for tumor model Human Mammary Carcinoma MX-1 Xenograft (intrarenal inoculation) in NU/NU BALB/C (nude) mice
Details: T/C endpoint: mean tumor weight change, schedule: Q04DX003 (sc), higher T/C = larger tumour; for T/C: evaluated on day 11
Method: The antitumor activity of compounds was measured in mice bearing transplantable tumors. Survival or tumor size were measured and the results are expressed as the measurement made in the treated group (T) divided by the measurement made in the vehicle treated control group (C). The tumor model used in this assay is Human Mammary Carcinoma MX-1 Xenograft (intrarenal inoculation) in NU/NU BALB/C (nude) mice

In the case of `ICCN(CCI)c1cccc2ccccc12`, the T/C (dose: 37.5 mg/kg/injection, vehicle: Klucel (hydroxypropylcellulose) (HPC)) is reported as 16 % of control, the T/C (dose: 75.0 mg/kg/injection, vehicle: Klucel (hydroxypropylcellulose) (HPC)) is reported as 4 % of control and the T/C (dose: 150.0 mg/kg/injection, vehicle: Klucel (hydroxypropylcellulose) (HPC)) is reported as 1 % of control.
`C[As](C)SC1OC(CO)C(O)C(O)C1O` (stereo not given) was tested, and the T/C (dose: 24.0 mg/kg/injection, vehicle: saline) was 107 % of control, the T/C (dose: 48.0 mg/kg/injection, vehicle: saline) was 113 % of control and the T/C (dose: 96.0 mg/kg/injection, vehicle: saline) was 92 % of control. The T/C (dose: 192.0 mg/kg/injection, vehicle: saline) was 70 % of control.
For `CC1(C)CN1P(=O)(Nc1ncccn1)N1CC1(C)C` (stereo not given), the T/C (dose: 200.0 mg/kg/injection, vehicle: saline) was 61 % of control, the T/C (dose: 400.0 mg/kg/injection, vehicle: saline) was 17 % of control and the T/C (dose: 800.0 mg/kg/injection, vehicle: saline) was -59 % of control. The survivor count (dose: 1600.0 mg/kg/injection, vehicle: saline) was 0 of 6 on day 11.
For `ClC1CSC1`, the T/C (dose: 300.0 mg/kg/injection, vehicle: saline with Tween-80) was 111 % of control, the T/C (dose: 600.0 mg/kg/injection, vehicle: saline with Tween-80) was 68 % of control and the T/C (dose: 1200.0 mg/kg/injection, vehicle: saline with Tween-80) was 127 % of control. The T/C (dose: 2400.0 mg/kg/injection, vehicle: saline with Tween-80) was 135 % of control [5 of 6 alive on day 11].
